Results deposited as PubChem BioAssay AID1259308 (NCATS, 2017).
Aim: 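Genes whose loss raises luciferase production in HEK293 cells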 (primary screen). Cell system: human HEK293 embryonic kidney cells stably expressing firefly luciferase (HEK-CMV-Luc2-Hygro). Reagents: single siRNA against human genes, 0.8 pmol siRNA per well. Duration: 72 h. Measured: 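Luciferase light (ONE-Glo) measured on one replicate plate set and viability (CellTiter-Glo) on the other, scaled to a negative control siRNA, with robust z-scores and luciferase per cell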. Reading the numbers: total luciferase, z-score and total luciferase, % of control: higher = more reporter protein produced. Call rule: 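An siRNA counts as active if its total luciferase robust z-score exceeds 3; genes with two or more such siRNAs out of three were retested with fresh siRNAs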. Meaning of the calls: active = raised luciferase; inactive = no rise.
Here is one part, drawn at random, of about 59,000 reagents. About 1,510 of them (2.6%) count as active. 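Calls use total luciferase alone and ignore viability, so some active siRNAs may act by altering cell number.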 Reagents against one gene are numbered here. Further read-outs or replicates are left out here. Reagent sequences are not shown.

{"target gene":"HAUS8 (HAUS augmin like complex subunit 8)","reagent":1,"total luciferase, z-score":1.09,"total luciferase, % of control":104,"outcome":"inactive"}
{"target gene":"HAUS8 (HAUS augmin like complex subunit 8)","reagent":2,"total luciferase, z-score":0.78,"total luciferase, % of control":97.4,"outcome":"inactive"}
{"target gene":"HAUS8 (HAUS augmin like complex subunit 8)","reagent":3,"total luciferase, z-score":-0.843,"total luciferase, % of control":65.1,"outcome":"inactive"}
{"target gene":"WWP1 (WW domain containing E3 ubiquitin protein ligase 1)","reagent":1,"total luciferase, z-score":-0.914,"total luciferase, % of control":63.7,"outcome":"inactive"}
{"target gene":"WWP1 (WW domain containing E3 ubiquitin protein ligase 1)","reagent":2,"total luciferase, z-score":4.2,"total luciferase, % of control":165,"outcome":"active"}
{"target gene":"WWP1 (WW domain containing E3 ubiquitin protein ligase 1)","reagent":3,"total luciferase, z-score":-0.218,"total luciferase, % of control":77.5,"outcome":"inactive"}
{"target gene":"ATP8B2 (ATPase phospholipid transporting 8B2)","reagent":1,"total luciferase, z-score":-0.139,"total luciferase, % of control":79.1,"outcome":"inactive"}
{"target gene":"ATP8B2 (ATPase phospholipid transporting 8B2)","reagent":2,"total luciferase, z-score":0.119,"total luciferase, % of control":84.3,"outcome":"inactive"}
{"target gene":"ATP8B2 (ATPase phospholipid transporting 8B2)","reagent":3,"total luciferase, z-score":3.08,"total luciferase, % of control":143,"outcome":"active"}
{"target gene":"ATAD5 (ATPase family AAA domain containing 5)","reagent":1,"total luciferase, z-score":1,"total luciferase, % of control":102,"outcome":"inactive"}
{"target gene":"ATAD5 (ATPase family AAA domain containing 5)","reagent":2,"total luciferase, z-score":0.96,"total luciferase, % of control":101,"outcome":"inactive"}
{"target gene":"ATAD5 (ATPase family AAA domain containing 5)","reagent":3,"total luciferase, z-score":-1.64,"total luciferase, % of control":49.2,"outcome":"inactive"}
{"target gene":"SOAT2 (sterol O-acyltransferase 2)","reagent":1,"total luciferase, z-score":0.812,"total luciferase, % of control":98,"outcome":"inactive"}
{"target gene":"SOAT2 (sterol O-acyltransferase 2)","reagent":2,"total luciferase, z-score":-1.03,"total luciferase, % of control":61.5,"outcome":"inactive"}
{"target gene":"SOAT2 (sterol O-acyltransferase 2)","reagent":3,"total luciferase, z-score":0.0836,"total luciferase, % of control":83.6,"outcome":"inactive"}
{"target gene":"HLCS (holocarboxylase synthetase)","reagent":1,"total luciferase, z-score":-1.27,"total luciferase, % of control":56.6,"outcome":"inactive"}
{"target gene":"HLCS (holocarboxylase synthetase)","reagent":2,"total luciferase, z-score":-1.79,"total luciferase, % of control":46.3,"outcome":"inactive"}
{"target gene":"HLCS (holocarboxylase synthetase)","reagent":3,"total luciferase, z-score":0.497,"total luciferase, % of control":91.8,"outcome":"inactive"}
{"target gene":"FPR2 (formyl peptide receptor 2)","reagent":1,"total luciferase, z-score":0.0112,"total luciferase, % of control":82.1,"outcome":"inactive"}
{"target gene":"FPR2 (formyl peptide receptor 2)","reagent":2,"total luciferase, z-score":-0.357,"total luciferase, % of control":74.8,"outcome":"inactive"}
{"target gene":"FPR2 (formyl peptide receptor 2)","reagent":3,"total luciferase, z-score":1.31,"total luciferase, % of control":108,"outcome":"inactive"}
{"target gene":"ZFYVE21 (zinc finger FYVE-type containing 21)","reagent":1,"total luciferase, z-score":0.891,"total luciferase, % of control":99.6,"outcome":"inactive"}
{"target gene":"ZFYVE21 (zinc finger FYVE-type containing 21)","reagent":2,"total luciferase, z-score":-1.01,"total luciferase, % of control":61.8,"outcome":"inactive"}
{"target gene":"ZFYVE21 (zinc finger FYVE-type containing 21)","reagent":3,"total luciferase, z-score":1.12,"total luciferase, % of control":104,"outcome":"inactive"}
{"target gene":"RPL31P13 (ribosomal protein L31 pseudogene 13)","reagent":1,"total luciferase, z-score":0.376,"total luciferase, % of control":89.4,"outcome":"inactive"}
{"target gene":"RPL31P13 (ribosomal protein L31 pseudogene 13)","reagent":2,"total luciferase, z-score":0.613,"total luciferase, % of control":94.1,"outcome":"inactive"}
{"target gene":"RPL31P13 (ribosomal protein L31 pseudogene 13)","reagent":3,"total luciferase, z-score":-0.768,"total luciferase, % of control":66.6,"outcome":"inactive"}
{"target gene":"LOC285191","reagent":1,"total luciferase, z-score":-0.162,"total luciferase, % of control":78.7,"outcome":"inactive"}
{"target gene":"LOC285191","reagent":2,"total luciferase, z-score":0.0835,"total luciferase, % of control":83.5,"outcome":"inactive"}
{"target gene":"LOC285191","reagent":3,"total luciferase, z-score":0.0643,"total luciferase, % of control":83.2,"outcome":"inactive"}
{"target gene":"OPRL1 (opioid related nociceptin receptor 1)","reagent":1,"total luciferase, z-score":1.4,"total luciferase, % of control":110,"outcome":"inactive"}
{"target gene":"OPRL1 (opioid related nociceptin receptor 1)","reagent":2,"total luciferase, z-score":1.34,"total luciferase, % of control":109,"outcome":"inactive"}
{"target gene":"OPRL1 (opioid related nociceptin receptor 1)","reagent":3,"total luciferase, z-score":-0.0628,"total luciferase, % of control":80.6,"outcome":"inactive"}
{"target gene":"SYBU (syntabulin)","reagent":1,"total luciferase, z-score":-0.89,"total luciferase, % of control":64.2,"outcome":"inactive"}
{"target gene":"SYBU (syntabulin)","reagent":2,"total luciferase, z-score":-0.0671,"total luciferase, % of control":80.6,"outcome":"inactive"}
{"target gene":"SYBU (syntabulin)","reagent":3,"total luciferase, z-score":-0.0621,"total luciferase, % of control":80.7,"outcome":"inactive"}
{"target gene":"ACVR2A (activin A receptor type 2A)","reagent":1,"total luciferase, z-score":-0.693,"total luciferase, % of control":68.1,"outcome":"inactive"}
{"target gene":"ACVR2A (activin A receptor type 2A)","reagent":2,"total luciferase, z-score":-1,"total luciferase, % of control":62,"outcome":"inactive"}
{"target gene":"ACVR2A (activin A receptor type 2A)","reagent":3,"total luciferase, z-score":-2.27,"total luciferase, % of control":36.8,"outcome":"inactive"}
{"target gene":"ANKRD13C-DT (ANKRD13C divergent transcript)","reagent":1,"total luciferase, z-score":0.558,"total luciferase, % of control":93,"outcome":"inactive"}
{"target gene":"ANKRD13C-DT (ANKRD13C divergent transcript)","reagent":2,"total luciferase, z-score":0.00553,"total luciferase, % of control":82,"outcome":"inactive"}
{"target gene":"ANKRD13C-DT (ANKRD13C divergent transcript)","reagent":3,"total luciferase, z-score":-0.0489,"total luciferase, % of control":80.9,"outcome":"inactive"}

Records above with an active call, once more:
{"target gene":"WWP1 (WW domain containing E3 ubiquitin protein ligase 1)","reagent":2,"total luciferase, z-score":4.2,"total luciferase, % of control":165,"outcome":"active"}
{"target gene":"ATP8B2 (ATPase phospholipid transporting 8B2)","reagent":3,"total luciferase, z-score":3.08,"total luciferase, % of control":143,"outcome":"active"}
